Results from the supplement of paper PMC11732987, “Enantioselective OTUD7B fragment discovery through chemoproteomics screening and high-throughput optimisation” (Communications Chemistry, 2025).
The list shows a part of the results. The data scatter; read single values as rough.

Amino acid sequences for entries named in this document (tags omitted). A change or cut given only in a name is not applied to a line headed by its entry. Residues count along the entry.
UniProt Q69YN2: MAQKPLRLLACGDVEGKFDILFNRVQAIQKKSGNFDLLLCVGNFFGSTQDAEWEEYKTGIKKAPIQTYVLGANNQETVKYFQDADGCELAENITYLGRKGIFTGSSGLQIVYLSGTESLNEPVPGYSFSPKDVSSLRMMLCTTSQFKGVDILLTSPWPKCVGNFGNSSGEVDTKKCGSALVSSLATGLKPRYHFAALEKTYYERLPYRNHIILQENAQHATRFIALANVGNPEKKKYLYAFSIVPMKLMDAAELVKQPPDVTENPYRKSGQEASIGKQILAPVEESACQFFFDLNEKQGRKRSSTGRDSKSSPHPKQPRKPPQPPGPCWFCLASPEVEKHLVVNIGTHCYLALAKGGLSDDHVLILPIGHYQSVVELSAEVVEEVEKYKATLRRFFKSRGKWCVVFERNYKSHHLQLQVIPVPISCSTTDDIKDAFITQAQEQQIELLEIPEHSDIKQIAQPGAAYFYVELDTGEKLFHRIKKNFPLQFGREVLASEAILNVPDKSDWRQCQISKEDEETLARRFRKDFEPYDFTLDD
UniProt Q9Y5B0: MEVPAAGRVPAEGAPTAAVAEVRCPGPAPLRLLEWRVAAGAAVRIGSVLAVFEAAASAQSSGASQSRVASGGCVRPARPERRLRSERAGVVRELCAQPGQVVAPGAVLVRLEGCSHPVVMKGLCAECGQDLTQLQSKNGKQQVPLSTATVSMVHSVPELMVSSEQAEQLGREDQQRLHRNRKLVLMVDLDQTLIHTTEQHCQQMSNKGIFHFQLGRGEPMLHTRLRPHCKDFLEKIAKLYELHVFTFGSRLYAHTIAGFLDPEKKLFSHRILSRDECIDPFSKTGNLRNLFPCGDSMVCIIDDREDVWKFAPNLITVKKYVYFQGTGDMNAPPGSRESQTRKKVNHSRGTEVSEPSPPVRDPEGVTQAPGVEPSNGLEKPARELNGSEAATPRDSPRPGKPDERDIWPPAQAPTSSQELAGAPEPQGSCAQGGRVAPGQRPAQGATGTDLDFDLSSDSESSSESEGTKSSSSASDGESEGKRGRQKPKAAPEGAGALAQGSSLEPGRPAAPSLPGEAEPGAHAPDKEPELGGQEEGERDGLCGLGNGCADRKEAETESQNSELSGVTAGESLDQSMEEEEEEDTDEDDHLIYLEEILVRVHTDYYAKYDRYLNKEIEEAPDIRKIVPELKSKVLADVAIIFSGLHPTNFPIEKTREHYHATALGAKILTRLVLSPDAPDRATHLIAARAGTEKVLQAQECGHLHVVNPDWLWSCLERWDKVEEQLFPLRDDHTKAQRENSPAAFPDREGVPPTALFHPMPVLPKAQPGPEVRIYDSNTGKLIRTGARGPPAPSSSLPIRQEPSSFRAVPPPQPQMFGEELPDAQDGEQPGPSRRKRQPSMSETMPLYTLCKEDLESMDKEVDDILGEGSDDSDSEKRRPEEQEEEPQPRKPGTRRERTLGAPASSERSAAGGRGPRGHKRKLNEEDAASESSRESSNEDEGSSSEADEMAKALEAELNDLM
UniProt Q8TB03: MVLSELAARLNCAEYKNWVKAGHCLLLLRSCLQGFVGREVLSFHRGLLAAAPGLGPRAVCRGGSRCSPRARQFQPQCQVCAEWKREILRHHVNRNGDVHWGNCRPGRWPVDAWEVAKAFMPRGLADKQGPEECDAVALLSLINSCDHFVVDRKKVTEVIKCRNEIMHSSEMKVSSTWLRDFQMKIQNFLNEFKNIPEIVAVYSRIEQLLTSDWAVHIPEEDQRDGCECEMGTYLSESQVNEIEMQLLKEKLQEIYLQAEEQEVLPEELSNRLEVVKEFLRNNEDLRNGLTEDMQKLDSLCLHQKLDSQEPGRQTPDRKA
UniProt Q9BQ39: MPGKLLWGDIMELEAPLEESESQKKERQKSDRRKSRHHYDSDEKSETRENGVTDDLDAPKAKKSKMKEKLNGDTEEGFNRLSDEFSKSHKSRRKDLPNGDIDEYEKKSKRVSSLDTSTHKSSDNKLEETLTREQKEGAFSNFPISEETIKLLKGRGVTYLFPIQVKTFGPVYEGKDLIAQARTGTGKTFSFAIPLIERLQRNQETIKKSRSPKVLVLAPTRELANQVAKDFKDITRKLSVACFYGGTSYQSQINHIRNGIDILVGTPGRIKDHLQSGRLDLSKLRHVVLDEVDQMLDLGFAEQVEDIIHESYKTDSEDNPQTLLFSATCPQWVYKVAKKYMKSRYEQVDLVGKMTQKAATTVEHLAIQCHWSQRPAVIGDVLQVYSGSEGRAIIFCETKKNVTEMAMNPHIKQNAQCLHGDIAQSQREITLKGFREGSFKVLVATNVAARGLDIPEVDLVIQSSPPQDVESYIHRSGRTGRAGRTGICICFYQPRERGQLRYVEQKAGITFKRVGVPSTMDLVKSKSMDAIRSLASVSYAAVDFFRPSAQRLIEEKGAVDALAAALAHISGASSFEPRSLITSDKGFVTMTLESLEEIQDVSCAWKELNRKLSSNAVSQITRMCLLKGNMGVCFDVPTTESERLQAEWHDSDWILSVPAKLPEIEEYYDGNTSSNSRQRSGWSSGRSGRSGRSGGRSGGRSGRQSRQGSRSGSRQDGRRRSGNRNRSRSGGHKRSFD
UniProt Q8IUI8, 74-97: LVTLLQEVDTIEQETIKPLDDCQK
UniProt Q14999: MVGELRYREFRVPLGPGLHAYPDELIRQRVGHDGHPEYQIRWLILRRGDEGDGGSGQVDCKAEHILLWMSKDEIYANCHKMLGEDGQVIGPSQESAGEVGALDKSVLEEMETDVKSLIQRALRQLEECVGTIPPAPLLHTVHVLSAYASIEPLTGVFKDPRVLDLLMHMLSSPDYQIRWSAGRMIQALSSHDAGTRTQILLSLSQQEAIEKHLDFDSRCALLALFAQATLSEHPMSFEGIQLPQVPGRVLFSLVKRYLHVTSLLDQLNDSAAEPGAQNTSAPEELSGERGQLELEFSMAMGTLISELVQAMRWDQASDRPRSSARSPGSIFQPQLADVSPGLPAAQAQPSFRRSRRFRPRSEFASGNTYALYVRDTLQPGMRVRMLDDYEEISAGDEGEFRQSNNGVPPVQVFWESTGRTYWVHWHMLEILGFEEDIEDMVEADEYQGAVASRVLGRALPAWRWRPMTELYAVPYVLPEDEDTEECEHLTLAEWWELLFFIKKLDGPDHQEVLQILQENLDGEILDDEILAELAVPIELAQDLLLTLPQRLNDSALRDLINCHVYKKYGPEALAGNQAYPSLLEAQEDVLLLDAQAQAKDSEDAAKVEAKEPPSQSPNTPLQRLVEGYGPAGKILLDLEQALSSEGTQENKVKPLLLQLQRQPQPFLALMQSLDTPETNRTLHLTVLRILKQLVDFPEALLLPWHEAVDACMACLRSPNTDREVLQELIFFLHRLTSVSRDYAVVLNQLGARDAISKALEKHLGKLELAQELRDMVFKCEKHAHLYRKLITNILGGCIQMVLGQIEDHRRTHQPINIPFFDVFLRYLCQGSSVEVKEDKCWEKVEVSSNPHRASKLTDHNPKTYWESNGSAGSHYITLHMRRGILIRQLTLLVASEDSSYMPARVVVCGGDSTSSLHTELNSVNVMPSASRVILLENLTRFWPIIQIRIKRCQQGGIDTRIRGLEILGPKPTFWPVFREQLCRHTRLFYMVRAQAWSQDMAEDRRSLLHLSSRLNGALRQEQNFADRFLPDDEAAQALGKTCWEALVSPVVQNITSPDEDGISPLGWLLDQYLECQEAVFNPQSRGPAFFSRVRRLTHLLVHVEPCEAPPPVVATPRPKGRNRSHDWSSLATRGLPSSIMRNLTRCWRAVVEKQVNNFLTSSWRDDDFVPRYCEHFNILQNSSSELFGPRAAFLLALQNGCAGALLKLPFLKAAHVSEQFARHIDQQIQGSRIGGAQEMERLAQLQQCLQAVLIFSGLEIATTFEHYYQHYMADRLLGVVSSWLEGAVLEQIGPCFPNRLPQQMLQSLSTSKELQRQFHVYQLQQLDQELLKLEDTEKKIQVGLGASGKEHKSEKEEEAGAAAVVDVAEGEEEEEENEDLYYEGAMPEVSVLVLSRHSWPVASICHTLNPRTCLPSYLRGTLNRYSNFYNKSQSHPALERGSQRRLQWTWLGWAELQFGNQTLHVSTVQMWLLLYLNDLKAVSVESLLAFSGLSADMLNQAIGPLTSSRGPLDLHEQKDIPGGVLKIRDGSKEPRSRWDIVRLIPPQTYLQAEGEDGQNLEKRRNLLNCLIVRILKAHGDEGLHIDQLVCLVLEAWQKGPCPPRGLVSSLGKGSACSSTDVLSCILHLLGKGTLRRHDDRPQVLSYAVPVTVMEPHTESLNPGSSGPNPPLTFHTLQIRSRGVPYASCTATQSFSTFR
UniProt P55060: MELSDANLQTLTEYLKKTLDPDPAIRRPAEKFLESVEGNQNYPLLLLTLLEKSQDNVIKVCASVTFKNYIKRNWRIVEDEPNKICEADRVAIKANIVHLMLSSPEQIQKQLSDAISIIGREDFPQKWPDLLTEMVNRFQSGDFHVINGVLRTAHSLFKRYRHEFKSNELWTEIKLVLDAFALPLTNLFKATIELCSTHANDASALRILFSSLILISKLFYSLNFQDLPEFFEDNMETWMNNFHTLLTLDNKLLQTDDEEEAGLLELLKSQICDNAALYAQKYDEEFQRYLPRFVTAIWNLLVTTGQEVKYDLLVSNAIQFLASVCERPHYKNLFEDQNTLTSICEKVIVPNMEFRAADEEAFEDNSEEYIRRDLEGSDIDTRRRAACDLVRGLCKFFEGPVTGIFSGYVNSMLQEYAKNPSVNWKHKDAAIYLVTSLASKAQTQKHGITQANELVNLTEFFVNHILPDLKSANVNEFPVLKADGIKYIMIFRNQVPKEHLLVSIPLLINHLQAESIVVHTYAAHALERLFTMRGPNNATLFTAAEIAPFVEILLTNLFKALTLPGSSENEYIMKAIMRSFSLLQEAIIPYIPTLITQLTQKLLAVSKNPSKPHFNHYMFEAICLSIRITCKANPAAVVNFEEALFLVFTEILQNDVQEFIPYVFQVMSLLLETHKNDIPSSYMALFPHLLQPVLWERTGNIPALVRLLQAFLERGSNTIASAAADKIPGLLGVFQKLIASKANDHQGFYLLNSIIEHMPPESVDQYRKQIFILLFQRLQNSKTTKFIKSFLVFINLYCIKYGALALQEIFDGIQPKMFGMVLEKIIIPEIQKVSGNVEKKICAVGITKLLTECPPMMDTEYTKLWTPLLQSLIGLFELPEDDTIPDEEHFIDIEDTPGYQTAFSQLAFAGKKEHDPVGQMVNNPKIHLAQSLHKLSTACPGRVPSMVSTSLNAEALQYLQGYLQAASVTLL
UniProt P46109: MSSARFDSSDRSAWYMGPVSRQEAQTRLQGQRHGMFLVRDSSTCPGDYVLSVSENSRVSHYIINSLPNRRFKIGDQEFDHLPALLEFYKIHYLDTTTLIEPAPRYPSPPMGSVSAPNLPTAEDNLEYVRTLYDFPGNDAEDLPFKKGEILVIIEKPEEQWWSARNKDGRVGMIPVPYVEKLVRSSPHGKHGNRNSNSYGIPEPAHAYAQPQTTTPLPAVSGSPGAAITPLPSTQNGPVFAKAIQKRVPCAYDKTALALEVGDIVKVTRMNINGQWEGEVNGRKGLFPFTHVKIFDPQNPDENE
UniProt Q6PI48: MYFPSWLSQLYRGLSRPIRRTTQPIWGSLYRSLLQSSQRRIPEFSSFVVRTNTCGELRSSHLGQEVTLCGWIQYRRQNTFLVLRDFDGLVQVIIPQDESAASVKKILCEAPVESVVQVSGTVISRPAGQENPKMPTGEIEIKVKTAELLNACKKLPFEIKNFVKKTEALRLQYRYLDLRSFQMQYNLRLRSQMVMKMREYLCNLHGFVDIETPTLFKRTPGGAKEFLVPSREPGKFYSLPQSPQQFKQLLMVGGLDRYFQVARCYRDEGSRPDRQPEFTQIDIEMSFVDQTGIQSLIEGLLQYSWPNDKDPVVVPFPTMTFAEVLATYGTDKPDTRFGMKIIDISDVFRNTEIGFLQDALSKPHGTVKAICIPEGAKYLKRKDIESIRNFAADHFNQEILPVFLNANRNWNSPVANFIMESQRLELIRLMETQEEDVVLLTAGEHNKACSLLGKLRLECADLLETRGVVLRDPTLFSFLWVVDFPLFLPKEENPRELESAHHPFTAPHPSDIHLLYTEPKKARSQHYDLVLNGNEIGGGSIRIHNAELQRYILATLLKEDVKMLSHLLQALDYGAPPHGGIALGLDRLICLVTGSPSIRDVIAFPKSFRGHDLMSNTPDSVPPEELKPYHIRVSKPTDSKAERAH
UniProt P35659: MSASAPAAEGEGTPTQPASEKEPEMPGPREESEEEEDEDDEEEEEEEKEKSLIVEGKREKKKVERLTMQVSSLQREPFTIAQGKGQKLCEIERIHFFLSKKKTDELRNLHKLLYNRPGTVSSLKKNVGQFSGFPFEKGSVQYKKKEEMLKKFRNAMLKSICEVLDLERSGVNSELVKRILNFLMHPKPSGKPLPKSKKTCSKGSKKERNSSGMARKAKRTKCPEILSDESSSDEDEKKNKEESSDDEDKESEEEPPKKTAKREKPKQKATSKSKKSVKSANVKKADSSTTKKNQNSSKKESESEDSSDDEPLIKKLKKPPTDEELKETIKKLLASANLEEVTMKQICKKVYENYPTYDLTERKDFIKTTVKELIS

Compound: ClCC(=O)N[C@@H]1CCCc2ccccc12
Test: log2 mean competition ratio of IA-DTB cysteine labelling (DMSO/compound) (log2 ratio); higher = stronger cysteine engagement by compound
Conditions: 50 µM; treatment time: 4 h; cell line lysate: HEK293T
Method: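 IA-DTB competitive cysteine chemoproteomics in HEK293T RIPA lysate. Lysates were treated with compound 29 or 30 at 50 or 200 µM for 4 h, then IA-DTB (500 µM, 1 h), trypsin-digested, NeutrAvidin-enriched and analysed by diaPASEF. Competition ratio = intensity DMSO / intensity compound (n=4 treated, n=64 DMSO); binding: mean log2 CR ≥ 1 and p ≤ 0.05 plus QC filters. Target is the cysteine site.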

Target | log2 mean competition ratio
DCAF7 C256 (UniProt P61962) | -0.155
CRELD2 C277 (UniProt Q6UXH1) | 0.431
CWF19L1 C160 (UniProt Q69YN2) | -0.0296
DACH2 C68 | -0.432
CSTF2T C150 (UniProt Q9H0L4) | 0.284
CTDP1 C95 (UniProt Q9Y5B0) | 0.0841
DDX59 C414 (UniProt Q5T1V6) | 0.219
CXorf38 C161 (UniProt Q8TB03) | 0.376
DDX50 C417 (UniProt Q9BQ39) | -0.0533
DDX31 C413 (UniProt Q9H8H2) | 0.0824
DECR1 C116 | 0.254
CRLF3 C95 (UniProt Q8IUI8) | -0.189
CYP39A1 C461 | -0.0832
CYC1 C139 (UniProt P08574) | 0.13
DECR2 C80 (UniProt Q9NUI1) | 0.219
DDX46 C590 | -0.253
CUL7 C828 (UniProt Q14999) | -0.184
CYFIP1 C98 | 0.00897
CTTNBP2 C1225 | -0.27

Target | log2 mean competition ratio
CTR9 C1052 (UniProt Q6PD62) | 0.0961
CS C101 | -0.151
CSE1L C939 (UniProt P55060) | 0.143
CRKL C44 (UniProt P46109) | -0.175
CTU1 C290 (UniProt Q7Z7A3) | 0.194
CTTN C246 (UniProt Q14247) | 0.155
CRBN C287 (UniProt Q96SW2) | 0.136
DARS2 C590 (UniProt Q6PI48) | 0.451
DDX41 C540 (UniProt Q9UJV9) | -0.106
DAB2IP C404 (UniProt Q5VWQ8) | -0.0568
DCAF5 C349 (UniProt Q96JK2) | 0.296
CXorf38 C31 (UniProt Q8TB03) | 0.121
DCTN5 C46 (UniProt Q9BTE1) | 0.021
DCP2 C140 (UniProt Q8IU60) | -0.0777
CREB5 C441 | 0.2
DBNL C127 (UniProt Q9UJU6) | -0.246
CRYBG1 C541 | -0.518
DEK C161 (UniProt P35659) | 0.232

Same assay, conditions: 200 µM; treatment time: 4 h; cell line lysate: HEK293T

Target | log2 mean competition ratio
DCAF7 C256 (UniProt P61962) | -0.0318
CRELD2 C277 (UniProt Q6UXH1) | 0.526
CWF19L1 C160 (UniProt Q69YN2) | -0.38
DACH2 C68 | 0.282
CSTF2T C150 (UniProt Q9H0L4) | -0.199
CTDP1 C95 (UniProt Q9Y5B0) | 0.0298
DDX59 C414 (UniProt Q5T1V6) | -0.263
CXorf38 C161 (UniProt Q8TB03) | 0.0835
DDX50 C417 (UniProt Q9BQ39) | 0.149
DDX31 C413 (UniProt Q9H8H2) | 0.0476
DECR1 C116 | -0.164
CRLF3 C95 (UniProt Q8IUI8) | -0.153
CYP39A1 C461 | 0.514
CYC1 C139 (UniProt P08574) | -0.035
DECR2 C80 (UniProt Q9NUI1) | 0.0135
DDX46 C590 | -0.11
CUL7 C828 (UniProt Q14999) | -0.0199
CYFIP1 C98 | 0.00925
CTTNBP2 C1225 | 0.18

Target | log2 mean competition ratio
CTR9 C1052 (UniProt Q6PD62) | -0.0413
CS C101 | -0.0789
CSE1L C939 (UniProt P55060) | 0.0323
CRKL C44 (UniProt P46109) | -0.246
CTU1 C290 (UniProt Q7Z7A3) | 0.185
CTTN C246 (UniProt Q14247) | -0.137
CRBN C287 (UniProt Q96SW2) | -0.125
DARS2 C590 (UniProt Q6PI48) | -0.4
DDX41 C540 (UniProt Q9UJV9) | -0.233
DAB2IP C404 (UniProt Q5VWQ8) | 0.0505
DCAF5 C349 (UniProt Q96JK2) | -0.232
CXorf38 C31 (UniProt Q8TB03) | -0.0967
DCTN5 C46 (UniProt Q9BTE1) | -0.0663
DCP2 C140 (UniProt Q8IU60) | 0.113
CREB5 C441 | -0.13
DBNL C127 (UniProt Q9UJU6) | -0.178
CRYBG1 C541 | 0.154
DEK C161 (UniProt P35659) | -0.131
